Record: PubChem BioAssay AID686943 (Drosophila RNAi Screening Center, 2013)

Test: 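Fly genes whose loss alters ERK activation after insulin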 (primary screen)
Cells: Drosophila S2R+ haemocyte-like cells expressing YFP-tagged ERK (Rolled)
Reagents: long dsRNA against Drosophila genes
Treatment: insulin stimulation versus unstimulated cells; dose and duration not given
Measurement: 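Antibody staining for doubly phosphorylated ERK divided by ERK-YFP signal, as plate z-scores, in insulin-treated and untreated cells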
Reading the numbers: replicate 1, z-score of dpERK with insulin and replicate 2, z-score of dpERK with insulin: higher = more active ERK per ERK-YFP after insulin; replicate 1, z-score of dpERK under basal conditions: higher = more basal active ERK per ERK-YFP; replicate 1, z-score of ERK-YFP with insulin: higher = more YFP-tagged ERK signal
The deposit covers about 23,000 reagents; below is a random part of those that have a named target and a result. 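Extra replicates exist only for a retested subset of genes; insulin dose and duration not given; both raised and lowered dpERK matter.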 The numbers tell different reagents against one gene apart. A plus sign joins genes that one reagent is predicted to hit. No sequences are given here. The record does not give: the amount of reagent, the time to read-out.

| gene knocked down | dsRNA no. | replicate 1, z-score of dpERK with insulin | replicate 2, z-score of dpERK with insulin | replicate 1, z-score of dpERK under basal conditions | replicate 1, z-score of ERK-YFP with insulin |
| --- | --- | --- | --- | --- | --- |
| CG18666 | 1 | -0.14 | -0.11 | 0.25 | 0.34 |
| CG11294 | 1 | 0.13 | -0.16 | -0.69 | -0.96 |
| VGlut (Vesicular glutamate transporter) | 1 | -0.1 | 0.79 | -0.32 | -0.24 |
| VGlut (Vesicular glutamate transporter) | 2 | 0.53 | 0.62 | -0.68 | 0.6 |
| Vha100-2 (Vacuolar H[+] ATPase 100kD subunit 2) | 1 | 0.56 | 0.29 | -0.07 | 0.53 |
| NK7.1 | 1 | -0.58 | -0.35 | -1.1 | -0.71 |
| Yp3 (Yolk protein 3) | 1 | 0.09 | -0.52 | 0.46 | -0.18 |
| Mcm10 (Minichromosome maintenance 10) | 1 | 0 | 0.02 | -0.11 | 0.31 |
| Cht2 (Chitinase 2) | 1 | 0.08 | -0.04 | 0.12 | -0.46 |
| CG31219 | 1 | -0.3 | 0.01 | 0.86 | 0.39 |
| CG18746 | 1 | -0.26 | 0 | -0.75 | -0.17 |
| Wee1 (Wee1 kinase) | 1 | 0.35 | -0.18 | 0.18 | 0.95 |
| CG13297 | 1 | -0.07 | -0.42 | 0.45 | -0.47 |
| CG32263 | 1 | -0.09 | -0.73 | -0.46 | -0.4 |
| CG34199 | 1 | -0.22 | -0.26 | -0.6 | -0.04 |
| CG17919 | 1 | -0.43 | -0.05 | 0.37 | 1.59 |
| CG15638 | 1 | -0.34 | -0.15 | -0.12 | 0.3 |
| GNBP3 (Gram-negative bacteria binding protein 3) | 1 | 0.22 | 0.06 | -0.79 | 0.5 |
| Lgr1 (Leucine-rich repeat-containing G protein-coupled receptor 1) | 1 | 0.46 | 0.18 | 1.33 | 0.49 |
| CG32813 | 1 | 1.28 | -0.12 | -0.51 | 0.07 |
| CG18467 | 1 | -0.37 | 0.03 | 0.46 | 0.75 |
| Gyc89Da (Guanylyl cyclase at 89Da) | 1 | 1.37 | 0.38 | -1.93 | -0.74 |
| CG13077 | 1 | 0.7 | -0.16 | -2.99 | -1.02 |
| CG42260 | 1 | 1.54 | 0.56 | -0.37 | -0.25 |
| CG42260 | 2 | 0.97 | 0.23 | 0.56 | -0.2 |
| Arl5 (ADP-ribosylation factor-like 5) | 1 | 0.59 | 0.32 | 0.7 | 0.41 |
| CG12096 | 1 | -0.05 | 0.18 | 0.4 | 0.67 |
| Jhbp6 (Juvenile hormone binding protein 6) | 1 | 0.35 | 0.19 | 0.95 | 0.61 |
| CG10417 | 1 | 0.3 | 0.57 | 1.7 | -0.23 |
| CG30082 | 1 | 1.39 | -0.84 | -0.63 | -0.03 |
| Fs (Follistatin) | 1 | 1.06 | 1.24 | 2.23 | -0.92 |
| Fs (Follistatin) | 2 | 1.7 | 0.86 | -0.21 | -0.2 |
| CG8708 | 1 | -0.27 | 0.21 | -0.3 | 0.25 |
| Gem4b + Gem4c | 1 | -0.64 | -0.54 | 0.49 | 0.45 |
| CG30389 | 1 | -1.45 | -0.45 | -0.52 | 0.43 |
| CG30389 | 2 | 0.63 | 1.04 | 0.41 | -1.08 |
| CG8675 | 1 | -0.12 | 0.1 | 0.13 | -0.06 |
| Smyd4-4 (SET and MYND domain containing, class 4, member 4) | 1 | 0.05 | -0.45 | 0.49 | -0.62 |
| Naxe (NAD(P)HX epimerase) | 1 | 0.33 | 0.26 | -0.48 | -0.04 |

Records listed so far whose gene name begins with V or v:
| gene knocked down | dsRNA no. | replicate 1, z-score of dpERK with insulin | replicate 2, z-score of dpERK with insulin | replicate 1, z-score of dpERK under basal conditions | replicate 1, z-score of ERK-YFP with insulin |
| --- | --- | --- | --- | --- | --- |
| VGlut (Vesicular glutamate transporter) | 1 | -0.1 | 0.79 | -0.32 | -0.24 |
| VGlut (Vesicular glutamate transporter) | 2 | 0.53 | 0.62 | -0.68 | 0.6 |
| Vha100-2 (Vacuolar H[+] ATPase 100kD subunit 2) | 1 | 0.56 | 0.29 | -0.07 | 0.53 |
